Experimental data reported in patent US11738065B2, “Polypeptides and analogues thereof for use in the treatment of diabetes and bone disorders” (UNIVERSITY OF ULSTER, priority 2015, dated 2023).
At least one peptide structure holds a part that was inferred or is arguable (an end, a ring closure or a residue). Marks after values point to notes of the source that are not given here. Where a SMILES comes first, the peptide text is derived from it. [ ]: non-standard residue; d: D form.

How the values were obtained:
[1] = tested on: BRIN-BD11 cells; test: In vitro insulin secretion from BRIN-BD11 cells; type: cell-based; conditions: 10^−6 mol/l peptide, 20 min, vs 5.6 and 16.7 mmol/l glucose control
Procedure: BRIN-BD11 cells were used to assess the insulin releasing activity of polypeptides as described by […] et al., 1996 (Diabetes. 1996 August; 45(8):1132-40). Cells were cultured in RPMI-1640 growth media supplemented with 10% (v/v) foetal bovine serum (FBS) and 1% (v/v) antibiotics (penicillin (100 U/ml), streptomycin ([…])), in 75 cm2 sterile tissue culture flasks (Greiner bio-one, UK) maintained at 37° C. and 5% CO2 in a LEEC incubator (Laboratory technical engineering, Nottingham, UK). BRIN-BD11 cells were then seeded at a density of 150,000 cells/well in 24-well plates (Nunc, Roskilde, Denmark) and allowed to attach overnight at 37° C.

[2] = tested on: high fat fed mice; test: Pancreatic insulin content and islet histology after 21 days treatment; type: in vivo
Procedure: On day 21, a non-fasted 24 h glucose profile was conducted. […] HOMA-IR was determined using the equation HOMA-IR=fasting glucose (mmol/l)×fasting insulin (mU/l)/22.5. […] Terminal analysis included measurement of total body fat and lean mass by DEXA scanning (Piximus Densitometer, Inside Outside Sales, Madison Wis., USA) and extraction of pancreatic tissue for analysis as detailed below. […] Briefly, pancreatic tissues were fixed in 4% parafolmaldehyde at 4° C. for 48 h. Pancreata were then embedded in paraffin wax and processed using an automated tissue processor (Leica TP1020, Leica Microsystems, Nussloch, Germany). Immunohistochemistry was performed as described by Vasu et al., 2014 (PLoS One. 2014 Jun. 26; 9(6):e101005). […] Abcam, ab6995) or guinea-pig anti-glucagon antibody (PCA2/4, 1:400; raised in-house). […] The slides were viewed under a FITC (488 nm) or TRITC filter (594 nm) using a fluorescent microscope (Olympus system microscope, model BX51) and photographed using a DP70 camera adapter system. Islet parameters were analysed using Cell^F image analysis software (Olympus Soft Imaging Solutions, GmbH). Blood samples were collected from the cut tip on the tail vein of conscious mice into chilled fluoride/heparin glucose micro-centrifuge tubes (Sarstedt, Numbrecht, Germany) at the time points indicated in the Drawings. Blood glucose was measured directly using a hand-held Ascencia Contour blood glucose meter (Bayer Healthcare, Newbury, Berkshire, UK).

[3] = tested on: high fat fed mice; test: Glucose tolerance test after 21 days treatment; type: in vivo
Procedure: Twice daily (09:30 and 17:30 h) i.p. injections of saline vehicle (0.9% w/v NaCl), polypeptides (at 25 nmol/kg bw) were administered for 21 days in high fat mice. Energy intake and body weight were monitored daily, and non-fasting blood glucose and plasma insulin concentrations were assessed at 3 day intervals. On day 21, a non-fasted 24 h glucose profile was conducted. At the end of the treatment period, i.p. glucose tolerance (18 mmol/kg bw), biological response to GIP (18 mmol/kg glucose in combination with native GIP (25 nmol/kg); i.p.) and insulin sensitivity (15 U/kg bw; i.p.) tests were performed. HOMA-IR was determined using the equation HOMA-IR=fasting glucose (mmol/l)×fasting insulin (mU/l)/22.5. All test solutions were administered in a final volume of 5 ml/kg body weight, at 10:00 h without previous 09:30 h peptide injection. Terminal analysis included measurement of total body fat and lean mass by DEXA scanning (Piximus Densitometer, Inside Outside Sales, Madison Wis., USA) and extraction of pancreatic tissue for analysis as detailed below. Immunohistochemistry Pancreatic tissue was excised, divided longitudinally and either immediately snap frozen for subsequent extraction of insulin using acid ethanol extraction (5 ml/g) as described by Irwin et al., 2015 (Diabetes. 2015 August; 64(8):2996-3009), or processed for immunohistochemical examination. Briefly, pancreatic tissues were fixed in 4% parafolmaldehyde at 4° C. for 48 h. Pancreata were then embedded in paraffin wax and processed using an automated tissue processor (Leica TP1020, Leica Microsystems, Nussloch, Germany). Immunohistochemistry was performed as described by Vasu et al., 2014 (PLoS One. 2014 Jun. 26; 9(6):e101005). Succinctly, tissue sections were deparaffinised, rehydrated and probed with primary antibodies: mouse anti-insulin antibody (1:500; Abcam, ab6995) or guinea-pig anti-glucagon antibody (PCA2/4, 1:400; raised in-house). The sections were then incubated with secondary antibody, Alexa Fluor 488 goat anti-guinea pig IgG (1:400) or Alexa Fluor 594 goat anti-mouse IgG (1:400); respectively. […] Islet parameters were analysed using Cell^F image analysis software (Olympus Soft Imaging Solutions, GmbH).
Tests were conducted after twice daily treatment with saline vehicle (0.9% (w/v) NaCl), (DAla^2)GIP and (DAla^2)GIP/xenin-8-Gln (each at 25 nmol/kg bw) for 21 days. For glucose tolerance test, blood glucose and plasma insulin concentrations were measured before and 15, 30, 60 and 105 min after i.p injection of glucose (18 mmol/kg bw). For metabolic response to GIP, blood glucose and plasma insulin concentrations were measured before and 15, 30, 60 and 105 min after i.p injection of glucose (18 mmol/kg bw) in combination with GIP (25 nmol/kg bw). […]

[4] = tested on: high fat fed mice; test: Metabolic response to GIP after 21 days treatment; type: in vivo
Procedure: Twice daily (09:30 and 17:30 h) i.p. injections of saline vehicle (0.9% w/v NaCl), polypeptides (at 25 nmol/kg bw) were administered for 21 days in high fat mice. Energy intake and body weight were monitored daily, and non-fasting blood glucose and plasma insulin concentrations were assessed at 3 day intervals. On day 21, a non-fasted 24 h glucose profile was conducted. At the end of the treatment period, i.p. glucose tolerance (18 mmol/kg bw), biological response to GIP (18 mmol/kg glucose in combination with native GIP (25 nmol/kg); i.p.) and insulin sensitivity (15 U/kg bw; i.p.) tests were performed. HOMA-IR was determined using the equation HOMA-IR=fasting glucose (mmol/l)×fasting insulin (mU/l)/22.5. All test solutions were administered in a final volume of 5 ml/kg body weight, at 10:00 h without previous 09:30 h peptide injection. Terminal analysis included measurement of total body fat and lean mass by DEXA scanning (Piximus Densitometer, Inside Outside Sales, Madison Wis., USA) and extraction of pancreatic tissue for analysis as detailed below. Immunohistochemistry Pancreatic tissue was excised, divided longitudinally and either immediately snap frozen for subsequent extraction of insulin using acid ethanol extraction (5 ml/g) as described by Irwin et al., 2015 (Diabetes. 2015 August; 64(8):2996-3009), or processed for immunohistochemical examination. Briefly, pancreatic tissues were fixed in 4% parafolmaldehyde at 4° C. for 48 h. Pancreata were then embedded in paraffin wax and processed using an automated tissue processor (Leica TP1020, Leica Microsystems, Nussloch, Germany). Immunohistochemistry was performed as described by Vasu et al., 2014 (PLoS One. 2014 Jun. 26; 9(6):e101005). Succinctly, tissue sections were deparaffinised, rehydrated and probed with primary antibodies: mouse anti-insulin antibody (1:500; Abcam, ab6995) or guinea-pig anti-glucagon antibody (PCA2/4, 1:400; raised in-house). The sections were then incubated with secondary antibody, Alexa Fluor 488 goat anti-guinea pig IgG (1:400) or Alexa Fluor 594 goat anti-mouse IgG (1:400); respectively. The slides were viewed under a FITC (488 nm) or TRITC filter (594 nm) using a fluorescent microscope (Olympus system microscope, model BX51) and photographed using a DP70 camera adapter system. Islet parameters were analysed using Cell^F image analysis software (Olympus Soft Imaging Solutions, GmbH).
Tests were conducted after twice daily treatment with saline vehicle (0.9% (w/v) NaCl), (DAla^2)GIP and (DAla^2)GIP/xenin-8-Gln (each at 25 nmol/kg bw) for 21 days. For glucose tolerance test, blood glucose and plasma insulin concentrations were measured before and 15, 30, 60 and 105 min after i.p injection of glucose (18 mmol/kg bw). For metabolic response to GIP, blood glucose and plasma insulin concentrations were measured before and 15, 30, 60 and 105 min after i.p injection of glucose (18 mmol/kg bw) in combination with GIP (25 nmol/kg bw). All studies were conducted in 18 h fasted mice. AUC values (0-105 min) for blood glucose and plasma insulin are shown. Values represent means±SEM for 6-8 mice. *P<0.05, **P<0.01, […] compared to high fat controls. ^ΔP<0.05, ^ΔΔP<0.01, ^ΔΔΔP<0.001 compared to lean controls.

[5] = 0-105 min, glucose 18 mmol/kg i.p., 18 h fasted, after 21 days 25 nmol/kg twice daily, mean ± SEM
[6] = 21 days treatment, vs high fat controls
[7] = 0-105 min, glucose 18 mmol/kg + GIP 25 nmol/kg i.p., 18 h fasted, after 21 days treatment, mean ± SEM

For `CC[C@H](C)[C@H](NC(=O)[C@H](CO)NC(=O)[C@H](Cc1ccc(O)cc1)NC(=O)[C@H](CC(=O)O)NC(=O)[C@H](CO)NC(=O)[C@@H](NC(=O)[C@H](Cc1ccccc1)NC(=O)[C@@H](NC(=O)CNC(=O)[C@H](CCC(=O)O)NC(=O)[C@@H](C)NC(=O)[C@@H](N)Cc1ccc(O)cc1)[C@@H](C)O)[C@@H](C)CC)C(=O)N[C@@H](C)C(=O)N[C@@H](CCSC)C(=O)N[C@@H](Cc1c[nH]cn1)C(=O)N1CCC[C@H]1C(=O)N[C@@H](CCC(N)=O)C(=O)N[C@@H](CCC(N)=O)C(=O)N1CCC[C@H]1C(=O)N[C@@H](Cc1c[nH]c2ccccc12)C(=O)N[C@H](C(=O)N[C@@H](CC(C)C)C(=O)O)[C@@H](C)CC` [(DAla2)GIP/xenin-8-Gln, TYR-(d)ALA-GLU-GLY-THR-PHE-ILE-SER-ASP-TYR-SER-ILE-ALA-MET-HIS-PRO-GLN-GLN-PRO-TRP-ILE-LEU] (H-Y[dA]EGTFISDYSIAMHPQQPWIL-OH; N-terminus and C-terminus assumed), the “Insulin secretion from BRIN-BD11 cells” value [1] was “significantly (P<0.05 to P<0.001) stimulated insulin secretion”, the Pancreatic insulin content ([2]; 21 days treatment) was “augmented (P<0.05) compared to lean controls” and the “Pancreatic islet area and beta cell area” value ([2]; 21 days twice daily 25 nmol/kg) was “increased (P<0.001) pancreatic islet and beta cell area compared to lean control mice”. The “Pancreatic alpha cell area” value ([2]; 21 days twice daily 25 nmol/kg, vs high fat controls) was “significantly (P<0.001) reduced”, the Islet size distribution ([2]; 21 days, vs lean control mice) was “decreased (P<0.001) number of small and medium sized islets, with increased (P<0.001) numbers of larger islets” and the “Glucose tolerance test Blood glucose AUC” value [3, 5] was 1757.3 ± 154.6^Δ mmol/l · min. The “Glucose tolerance test Plasma insulin AUC” value [3, 5] was 49.0 ± 6.5^Δ ng/ml · min, the “Glucose-stimulated plasma insulin AUC” value [3, 6] was “reduced, albeit non-significantly” and the “Overall AUC blood glucose following a glucose load” value ([3]; 21 days treatment, vs saline controls) was “strong tendency to reduce overall AUC blood glucose levels”. The “Metabolic response to GIP Blood glucose AUC” value [4, 7] was 1130.1 ± 143.9* mmol/l · min, the “Metabolic response to GIP Plasma insulin AUC” value [4, 7] was 103.1 ± 23.3*^,ΔΔ ng/ml · min and the “Glucose lowering and insulin releasing actions of native GIP” value ([4]; 21 days treatment) was “significantly (P<0.05) improved”. For the same compound, the “Decrease of overall blood glucose AUC in response to GIP vs saline treated control mice” value ([4]; 21 days treatment, P<0.05) was 30% and the “GIP-induced elevations of plasma insulin (AUC)” value [4, 6] was “significantly (P<0.05 to P<0.01) augmented”.
